According to the supplement of paper PMC10849652:
This is one part of the list.

Protein sequences, listed by entry. Tags and fused reporters are not part of them. Lines headed by an entry give the natural chain unless they say otherwise; changes in a name come on top.
UniProt Q96GX2: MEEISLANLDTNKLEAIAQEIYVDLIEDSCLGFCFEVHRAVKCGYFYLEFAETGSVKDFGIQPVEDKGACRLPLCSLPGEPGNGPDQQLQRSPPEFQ
UniProt O43681: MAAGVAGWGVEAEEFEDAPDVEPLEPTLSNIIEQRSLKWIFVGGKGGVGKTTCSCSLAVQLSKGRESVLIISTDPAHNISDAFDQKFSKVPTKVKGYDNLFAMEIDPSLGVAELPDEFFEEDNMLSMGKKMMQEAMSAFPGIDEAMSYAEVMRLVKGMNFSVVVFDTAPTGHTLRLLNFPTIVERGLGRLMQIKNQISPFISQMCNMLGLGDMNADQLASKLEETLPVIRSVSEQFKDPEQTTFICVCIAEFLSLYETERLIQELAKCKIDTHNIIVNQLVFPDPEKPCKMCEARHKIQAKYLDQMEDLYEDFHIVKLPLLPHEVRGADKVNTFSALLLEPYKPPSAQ
UniProt Q9H7T9: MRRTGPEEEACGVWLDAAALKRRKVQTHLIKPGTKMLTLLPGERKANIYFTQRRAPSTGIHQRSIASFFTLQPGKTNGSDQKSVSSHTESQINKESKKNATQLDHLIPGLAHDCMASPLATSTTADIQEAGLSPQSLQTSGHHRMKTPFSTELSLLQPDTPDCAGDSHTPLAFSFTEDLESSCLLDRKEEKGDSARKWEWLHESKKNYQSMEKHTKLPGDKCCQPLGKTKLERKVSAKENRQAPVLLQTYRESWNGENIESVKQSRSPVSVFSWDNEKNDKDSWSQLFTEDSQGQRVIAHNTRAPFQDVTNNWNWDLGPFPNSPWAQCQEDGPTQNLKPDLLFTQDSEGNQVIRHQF
UniProt Q8NBU5: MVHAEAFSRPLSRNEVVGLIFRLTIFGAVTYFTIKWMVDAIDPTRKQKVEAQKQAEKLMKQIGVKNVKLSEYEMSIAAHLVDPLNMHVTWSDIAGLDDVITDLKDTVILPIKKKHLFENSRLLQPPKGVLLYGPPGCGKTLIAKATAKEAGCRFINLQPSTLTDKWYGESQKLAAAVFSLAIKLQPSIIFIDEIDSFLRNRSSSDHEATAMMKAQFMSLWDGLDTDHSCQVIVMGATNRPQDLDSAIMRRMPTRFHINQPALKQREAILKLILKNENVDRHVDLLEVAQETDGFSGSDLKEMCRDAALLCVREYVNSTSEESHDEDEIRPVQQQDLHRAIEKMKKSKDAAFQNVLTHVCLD
UniProt Q96GD4, whole entry, looked up: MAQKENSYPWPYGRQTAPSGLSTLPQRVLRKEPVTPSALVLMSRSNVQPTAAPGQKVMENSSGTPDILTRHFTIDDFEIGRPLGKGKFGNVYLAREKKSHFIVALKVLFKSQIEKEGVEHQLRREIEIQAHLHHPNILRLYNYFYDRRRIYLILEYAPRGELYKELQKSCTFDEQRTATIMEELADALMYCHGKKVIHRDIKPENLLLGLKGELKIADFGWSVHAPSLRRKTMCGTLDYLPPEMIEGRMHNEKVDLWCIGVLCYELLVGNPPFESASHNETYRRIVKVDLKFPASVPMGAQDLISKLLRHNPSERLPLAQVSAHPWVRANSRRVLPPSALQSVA
UniProt P35670: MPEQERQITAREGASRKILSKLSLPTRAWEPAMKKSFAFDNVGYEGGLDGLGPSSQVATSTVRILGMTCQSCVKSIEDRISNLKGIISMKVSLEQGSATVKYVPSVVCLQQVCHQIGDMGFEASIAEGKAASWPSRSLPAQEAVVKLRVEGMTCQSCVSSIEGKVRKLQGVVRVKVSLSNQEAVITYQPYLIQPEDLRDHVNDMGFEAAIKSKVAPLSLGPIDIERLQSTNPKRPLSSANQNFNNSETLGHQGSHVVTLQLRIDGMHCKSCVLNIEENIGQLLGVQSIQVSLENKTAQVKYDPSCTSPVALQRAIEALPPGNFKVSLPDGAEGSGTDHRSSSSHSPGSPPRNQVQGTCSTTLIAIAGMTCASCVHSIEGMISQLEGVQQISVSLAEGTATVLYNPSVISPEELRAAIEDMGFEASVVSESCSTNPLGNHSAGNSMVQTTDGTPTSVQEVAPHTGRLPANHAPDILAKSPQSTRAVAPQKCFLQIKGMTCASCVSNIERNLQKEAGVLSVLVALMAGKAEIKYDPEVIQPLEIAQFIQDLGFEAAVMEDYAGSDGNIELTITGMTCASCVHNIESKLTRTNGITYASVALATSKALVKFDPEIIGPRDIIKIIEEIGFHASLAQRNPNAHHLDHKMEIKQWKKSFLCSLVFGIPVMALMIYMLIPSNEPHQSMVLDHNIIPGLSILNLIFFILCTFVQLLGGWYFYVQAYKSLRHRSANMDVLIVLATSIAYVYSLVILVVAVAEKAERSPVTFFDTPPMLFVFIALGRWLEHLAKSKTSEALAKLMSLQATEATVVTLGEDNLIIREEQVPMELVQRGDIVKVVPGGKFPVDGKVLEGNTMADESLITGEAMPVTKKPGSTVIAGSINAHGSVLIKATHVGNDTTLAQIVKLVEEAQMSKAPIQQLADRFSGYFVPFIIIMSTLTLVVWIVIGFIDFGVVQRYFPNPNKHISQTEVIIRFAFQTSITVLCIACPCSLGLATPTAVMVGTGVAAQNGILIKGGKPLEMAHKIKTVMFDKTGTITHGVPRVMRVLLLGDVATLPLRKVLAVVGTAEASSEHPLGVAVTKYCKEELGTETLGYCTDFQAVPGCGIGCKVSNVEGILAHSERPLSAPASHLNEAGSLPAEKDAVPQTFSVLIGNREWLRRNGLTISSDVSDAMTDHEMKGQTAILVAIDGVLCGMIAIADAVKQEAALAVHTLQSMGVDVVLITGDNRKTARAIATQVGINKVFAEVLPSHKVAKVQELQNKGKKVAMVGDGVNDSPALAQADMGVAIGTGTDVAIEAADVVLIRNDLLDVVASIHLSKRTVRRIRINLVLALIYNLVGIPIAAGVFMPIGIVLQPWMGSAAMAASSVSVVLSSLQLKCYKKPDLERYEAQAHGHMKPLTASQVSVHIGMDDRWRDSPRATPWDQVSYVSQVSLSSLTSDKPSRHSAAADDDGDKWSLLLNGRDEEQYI
UniProt Q8WWM7: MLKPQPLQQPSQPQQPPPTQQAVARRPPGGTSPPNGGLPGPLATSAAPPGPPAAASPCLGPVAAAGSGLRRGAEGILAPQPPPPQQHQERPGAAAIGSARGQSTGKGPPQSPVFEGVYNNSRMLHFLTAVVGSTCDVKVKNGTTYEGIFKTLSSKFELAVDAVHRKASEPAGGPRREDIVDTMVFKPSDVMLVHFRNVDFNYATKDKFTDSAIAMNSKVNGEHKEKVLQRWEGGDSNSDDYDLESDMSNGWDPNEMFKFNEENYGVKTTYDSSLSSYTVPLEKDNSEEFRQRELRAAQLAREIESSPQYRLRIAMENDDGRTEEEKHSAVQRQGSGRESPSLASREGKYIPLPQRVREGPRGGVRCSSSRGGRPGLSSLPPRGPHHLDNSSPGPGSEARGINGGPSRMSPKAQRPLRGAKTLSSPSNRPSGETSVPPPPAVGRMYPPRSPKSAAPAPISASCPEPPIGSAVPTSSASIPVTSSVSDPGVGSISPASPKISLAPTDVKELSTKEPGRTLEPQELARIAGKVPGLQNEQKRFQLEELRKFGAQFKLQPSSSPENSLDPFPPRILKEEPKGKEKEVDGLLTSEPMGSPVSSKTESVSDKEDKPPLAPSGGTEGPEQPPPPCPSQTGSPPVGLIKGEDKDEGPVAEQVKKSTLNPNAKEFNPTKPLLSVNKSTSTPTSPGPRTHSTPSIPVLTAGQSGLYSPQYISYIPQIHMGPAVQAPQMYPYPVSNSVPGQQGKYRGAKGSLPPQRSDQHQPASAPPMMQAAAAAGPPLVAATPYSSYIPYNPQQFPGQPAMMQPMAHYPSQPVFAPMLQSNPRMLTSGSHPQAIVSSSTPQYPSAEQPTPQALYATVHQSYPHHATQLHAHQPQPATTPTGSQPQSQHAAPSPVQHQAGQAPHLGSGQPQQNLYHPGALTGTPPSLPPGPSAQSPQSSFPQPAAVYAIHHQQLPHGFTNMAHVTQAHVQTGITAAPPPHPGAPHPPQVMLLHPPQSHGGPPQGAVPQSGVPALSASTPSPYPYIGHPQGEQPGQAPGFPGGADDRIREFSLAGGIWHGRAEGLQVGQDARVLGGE
UniProt H3BUF6: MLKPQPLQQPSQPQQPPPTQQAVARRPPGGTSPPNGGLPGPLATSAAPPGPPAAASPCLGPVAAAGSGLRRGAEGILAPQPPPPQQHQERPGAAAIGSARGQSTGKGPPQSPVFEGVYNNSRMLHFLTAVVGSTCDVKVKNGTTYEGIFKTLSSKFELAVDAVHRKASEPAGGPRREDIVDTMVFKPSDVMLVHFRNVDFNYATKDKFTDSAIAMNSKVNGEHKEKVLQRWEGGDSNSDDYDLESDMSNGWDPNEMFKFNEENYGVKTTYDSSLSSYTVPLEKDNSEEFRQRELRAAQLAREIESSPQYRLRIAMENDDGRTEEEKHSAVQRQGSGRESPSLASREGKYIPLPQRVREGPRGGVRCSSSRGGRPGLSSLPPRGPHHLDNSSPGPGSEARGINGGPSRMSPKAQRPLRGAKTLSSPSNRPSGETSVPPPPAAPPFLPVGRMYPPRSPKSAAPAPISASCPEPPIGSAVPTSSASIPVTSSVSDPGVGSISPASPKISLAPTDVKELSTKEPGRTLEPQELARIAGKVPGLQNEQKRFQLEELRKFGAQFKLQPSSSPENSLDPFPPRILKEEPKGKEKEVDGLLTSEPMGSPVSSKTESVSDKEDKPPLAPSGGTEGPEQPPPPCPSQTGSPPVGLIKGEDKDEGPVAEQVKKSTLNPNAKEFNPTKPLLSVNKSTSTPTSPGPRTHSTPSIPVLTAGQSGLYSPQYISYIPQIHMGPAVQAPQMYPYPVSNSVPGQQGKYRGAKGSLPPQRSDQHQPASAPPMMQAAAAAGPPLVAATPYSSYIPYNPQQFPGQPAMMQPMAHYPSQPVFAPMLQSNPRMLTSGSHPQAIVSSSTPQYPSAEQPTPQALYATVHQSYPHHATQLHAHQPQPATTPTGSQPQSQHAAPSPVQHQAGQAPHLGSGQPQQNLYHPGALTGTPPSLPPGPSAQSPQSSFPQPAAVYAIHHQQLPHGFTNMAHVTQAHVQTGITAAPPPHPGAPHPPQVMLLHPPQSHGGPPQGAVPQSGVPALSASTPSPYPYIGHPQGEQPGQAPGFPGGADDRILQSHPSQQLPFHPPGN
UniProt O15169, whole entry, looked up: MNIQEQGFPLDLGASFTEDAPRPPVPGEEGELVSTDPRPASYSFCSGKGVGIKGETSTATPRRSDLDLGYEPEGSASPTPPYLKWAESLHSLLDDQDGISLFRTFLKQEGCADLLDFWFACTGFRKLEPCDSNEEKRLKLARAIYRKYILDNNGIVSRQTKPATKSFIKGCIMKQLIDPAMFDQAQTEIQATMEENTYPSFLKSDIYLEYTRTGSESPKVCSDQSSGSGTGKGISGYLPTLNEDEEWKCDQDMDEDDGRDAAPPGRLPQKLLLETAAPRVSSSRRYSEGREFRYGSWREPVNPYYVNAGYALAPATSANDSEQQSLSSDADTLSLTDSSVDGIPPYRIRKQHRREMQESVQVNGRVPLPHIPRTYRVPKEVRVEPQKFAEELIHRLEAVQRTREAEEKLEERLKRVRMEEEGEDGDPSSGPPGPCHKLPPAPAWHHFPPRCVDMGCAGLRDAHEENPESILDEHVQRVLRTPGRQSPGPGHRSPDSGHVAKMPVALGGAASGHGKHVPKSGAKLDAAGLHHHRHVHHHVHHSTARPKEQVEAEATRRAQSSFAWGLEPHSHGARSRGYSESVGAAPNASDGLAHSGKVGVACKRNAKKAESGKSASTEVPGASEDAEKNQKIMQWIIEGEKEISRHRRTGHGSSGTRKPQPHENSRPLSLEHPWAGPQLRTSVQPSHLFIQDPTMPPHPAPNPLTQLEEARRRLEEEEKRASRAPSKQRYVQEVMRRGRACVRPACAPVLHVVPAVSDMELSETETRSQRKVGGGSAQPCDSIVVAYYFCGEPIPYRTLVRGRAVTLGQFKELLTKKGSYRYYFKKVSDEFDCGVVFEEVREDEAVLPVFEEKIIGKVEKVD
UniProt Q9NQS1: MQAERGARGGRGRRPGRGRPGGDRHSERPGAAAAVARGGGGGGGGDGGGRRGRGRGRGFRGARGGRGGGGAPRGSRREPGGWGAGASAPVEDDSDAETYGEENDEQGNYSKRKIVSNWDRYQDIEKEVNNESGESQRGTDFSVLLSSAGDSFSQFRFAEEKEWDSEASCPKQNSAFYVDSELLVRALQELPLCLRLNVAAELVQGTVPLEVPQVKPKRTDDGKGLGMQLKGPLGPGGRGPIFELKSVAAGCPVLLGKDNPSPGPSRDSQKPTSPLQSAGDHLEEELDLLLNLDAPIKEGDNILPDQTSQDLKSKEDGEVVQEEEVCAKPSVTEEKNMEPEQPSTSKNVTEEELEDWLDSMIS
UniProt P18847: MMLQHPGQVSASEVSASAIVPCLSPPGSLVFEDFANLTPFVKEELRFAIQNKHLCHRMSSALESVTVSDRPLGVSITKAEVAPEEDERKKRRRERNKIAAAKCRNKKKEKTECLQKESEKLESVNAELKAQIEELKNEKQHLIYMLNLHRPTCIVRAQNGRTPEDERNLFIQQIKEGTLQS

Each target was assayed with CN1CCC(CNc2ccc3ncc(-c4cccc(OC(F)(F)F)c4)n3n2)CC1 (assay: log2 fold change, soluble protein after heating vs DMSO (PISA); higher = thermal stabilisation; K562 lysate, 10 uM; active = over 0.2 and 3.5 SD of the protein, either way, in both replicates (recomputed)).
How it was run: (§1)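 To prepare the extract, K562 pellets were dounce-homogenised in PBS pH 7.4 with 1 mM MgCl2, giving crude material at 1 mg/mL protein. This was treated with 10 μM compound for 30 min, then heated in aliquots for 3 min over 48°C-58°C before pooling and addition of NP-40 to 0.5% at 4°C. Centrifugation at 21,000xg for 90 min left soluble protein in the supernatant, which TMTpro 16plex LC-MS/MS quantified with equalised channel sums. Results are log-two fold changes in thermal stability compared with solvent controls, from duplicates.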

| Target | log2 fold change |
| --- | --- |
| ATRN (UniProt O75882) | inactive: 0.184 |
| ATP5F1A (UniProt P25705) | inactive: 0.002 |
| ASCC2 (UniProt Q9H1I8) | inactive: -0.103 |
| ATXN7L3B (UniProt Q96GX2) | inactive: 0.015 |
| ASL (UniProt P04424) | inactive: 0.027 |
| ATG10 (UniProt Q9H0Y0) | inactive: 0.01 |
| ATF7IP2 (UniProt Q5U623) | inactive: 0.197 |
| B3GLCT (UniProt Q6Y288) | inactive: 0.001 |
| ATL2 (UniProt Q8NHH9) | inactive: 0.031 |
| ASPM (UniProt Q8IZT6) | inactive: 0.005 |
| ATE1 isoform 2 (UniProt O95260) | inactive: 0.126 |
| ASNA1 (UniProt O43681) | inactive: 0.01 |
| AUNIP isoform 2 (UniProt Q9H7T9) | inactive: 0.01 |
| ATAD1 (UniProt Q8NBU5) | inactive: -0.03 |
| AURKB isoform 5 (UniProt Q96GD4) | inactive: 0.093 |
| ATP6V0C (UniProt P27449) | inactive: 0.181 |
| ATXN1L (UniProt P0C7T5) | inactive: -0.047 |
| ATP7B (UniProt P35670) | inactive: 0.009 |
| ATXN2L (UniProt Q8WWM7) | inactive: 0 |
| ATXN2 (UniProt F8WB05) | inactive: -0.004 |
| AUH (UniProt Q13825) | inactive: 0 |
| ATRX (UniProt P46100) | inactive: -0.162 |
| ATXN2L (UniProt H3BUF6) | inactive: 0.036 |
| AXIN1 (UniProt O15169) | inactive: 0.085 |
| B4GALNT1 (UniProt Q00973) | inactive: -0.058 |
| B3GNT5 (UniProt Q9BYG0) | inactive: -0.105 |
| AVEN (UniProt Q9NQS1) | inactive: 0.167 |
| ATF3 (UniProt P18847) | inactive: 0.169 |

Each target was assayed with CN1CCN(CCOc2cc(OC3CCOCC3)c3c(Nc4c(Cl)ccc5c4OCO5)ncnc3c2)CC1 [saracatinib] in the same assay as above.
How it was run: as §1

| Target | log2 fold change |
| --- | --- |
| ATRN (UniProt O75882) | inactive: 0.086 |
| ATP5F1A (UniProt P25705) | inactive: -0.064 |
| ASCC2 (UniProt Q9H1I8) | inactive: 0.04 |
| ATXN7L3B (UniProt Q96GX2) | inactive: 0.007 |
| ASL (UniProt P04424) | inactive: -0.015 |
| ATG10 (UniProt Q9H0Y0) | inactive: -0.021 |
| ATP5F1B (UniProt F8W0P7) | inactive: 0.107 |
| ATG14 (UniProt Q6ZNE5) | inactive: 0.009 |
| B3GLCT (UniProt Q6Y288) | inactive: 0.035 |
| ATL2 (UniProt Q8NHH9) | inactive: 0.028 |
| ASPM (UniProt Q8IZT6) | inactive: 0.079 |
| ATE1 isoform 2 (UniProt O95260) | inactive: 0.006 |
| ASNA1 (UniProt O43681) | inactive: 0.018 |
| AUNIP isoform 2 (UniProt Q9H7T9) | inactive: 0.002 |
| ATAD1 (UniProt Q8NBU5) | inactive: -0.031 |
| AURKB isoform 5 (UniProt Q96GD4) | inactive: 0 |
| ATP6V0C (UniProt P27449) | inactive: -0.026 |
| ATP7B (UniProt P35670) | inactive: 0.144 |
| ATXN2L (UniProt Q8WWM7) | inactive: -0.136 |
| ATXN2 (UniProt F8WB05) | inactive: 0.05 |
| AUH (UniProt Q13825) | inactive: -0.101 |
| ATRX (UniProt P46100) | inactive: 0.058 |
| ATXN2L (UniProt H3BUF6) | inactive: -0.042 |
| AXIN1 (UniProt O15169) | inactive: -0.078 |
| ATRAID isoform 3 (UniProt Q6UW56) | inactive: 0.042 |
| B4GALNT1 (UniProt Q00973) | inactive: -0.05 |
| B3GNT5 (UniProt Q9BYG0) | inactive: 0.066 |
| AVEN (UniProt Q9NQS1) | inactive: 0 |
| ATF3 (UniProt P18847) | inactive: -0.036 |
| ATP1B2 (UniProt P14415) | inactive: 0.073 |

Each target was assayed with CN1CCN(c2nc(C3=C(c4c[nH]c5ccccc45)C(=O)NC3=O)c3ccccc3n2)CC1 [sotrastaurin] in the same assay as above.
How it was run: as §1

| Target | log2 fold change |
| --- | --- |
| ATRN (UniProt O75882) | inactive: 0.046 |
| ATP5F1A (UniProt P25705) | inactive: 0.006 |
| ASCC2 (UniProt Q9H1I8) | inactive: 0.027 |
| ATXN7L3B (UniProt Q96GX2) | inactive: 0.005 |
| ASL (UniProt P04424) | inactive: 0.016 |
| ATG10 (UniProt Q9H0Y0) | inactive: 0.038 |
| ATF7IP2 (UniProt Q5U623) | inactive: 0.031 |
| B3GLCT (UniProt Q6Y288) | inactive: 0.031 |
| ATL2 (UniProt Q8NHH9) | inactive: -0.007 |
| ASPM (UniProt Q8IZT6) | inactive: -0.004 |
| ATE1 isoform 2 (UniProt O95260) | inactive: -0.016 |
| ASNA1 (UniProt O43681) | inactive: -0.015 |
| AUNIP isoform 2 (UniProt Q9H7T9) | inactive: -0.002 |
| ATAD1 (UniProt Q8NBU5) | inactive: 0.06 |
| AURKB isoform 5 (UniProt Q96GD4) | inactive: -0.018 |
| ATP6V0C (UniProt P27449) | inactive: 0.005 |
| ATXN1L (UniProt P0C7T5) | inactive: 0.002 |
| ATP7B (UniProt P35670) | inactive: -0.023 |
| ATXN2L (UniProt Q8WWM7) | inactive: -0.019 |
| ATXN2 (UniProt F8WB05) | inactive: 0.086 |
| AUH (UniProt Q13825) | inactive: 0.047 |
| ATRX (UniProt P46100) | inactive: 0.176 |
| ATXN2L (UniProt H3BUF6) | inactive: 0.074 |
| AXIN1 (UniProt O15169) | inactive: -0.11 |
| ATRAID isoform 3 (UniProt Q6UW56) | inactive: 0.002 |
| B4GALNT1 (UniProt Q00973) | inactive: 0.027 |
| AVEN (UniProt Q9NQS1) | inactive: -0.007 |
| ATF3 (UniProt P18847) | inactive: -0.02 |
